Measurements taken from patent US8765641B2, “Chip production, hybridization and data interpretation for antibody and protein microarrays” (Detroit R&D, Inc., priority 2004, dated 2014).
At least one compound was matched to its structure with a doubt left.

Experiments:
Calpain = experiment: Western blot analysis of rat hepatic proteins after PB treatment; type: in vivo
GST-alpha = experiment: Antibody microarray analysis of rat hepatic proteins after phenobarbital treatment; details: 500 μg/ml antibody spots
[1] = system: antioxidant-like protein 1; experiment: as above; details: 500 μg/ml antibody spots

What does the source list for CCC1(c2ccccc2)C(=O)NC(=O)NC1=O [phenobarbital]?
level of calpain after PB treatment, Western blot analysis (Calpain): Increased levels; expression level of GST-alpha after PB treatment (GeneSpring analysis, FIG. 2) (GST-alpha): without any change; expression level of antioxidant-like protein 1 after PB treatment (GeneSpring analysis, FIG. 2) [1]: without any change
